Measurements: patent publication US7495127B2, “Potassium channel opener” (Mitsubishi Tanabe Pharma Corporation, priority 2001, dated 2009)
Some entries share one result that the patent states for a list of compounds. At least one structure is not confirmed: it was looked up by name or label, or the drawing left a doubt.

The chains behind the UniProt entries cited, without tags or fusion partners. Where a name states a change or a piece, a line headed by the entry shows the natural chain unless it says otherwise.
UniProt Q62976: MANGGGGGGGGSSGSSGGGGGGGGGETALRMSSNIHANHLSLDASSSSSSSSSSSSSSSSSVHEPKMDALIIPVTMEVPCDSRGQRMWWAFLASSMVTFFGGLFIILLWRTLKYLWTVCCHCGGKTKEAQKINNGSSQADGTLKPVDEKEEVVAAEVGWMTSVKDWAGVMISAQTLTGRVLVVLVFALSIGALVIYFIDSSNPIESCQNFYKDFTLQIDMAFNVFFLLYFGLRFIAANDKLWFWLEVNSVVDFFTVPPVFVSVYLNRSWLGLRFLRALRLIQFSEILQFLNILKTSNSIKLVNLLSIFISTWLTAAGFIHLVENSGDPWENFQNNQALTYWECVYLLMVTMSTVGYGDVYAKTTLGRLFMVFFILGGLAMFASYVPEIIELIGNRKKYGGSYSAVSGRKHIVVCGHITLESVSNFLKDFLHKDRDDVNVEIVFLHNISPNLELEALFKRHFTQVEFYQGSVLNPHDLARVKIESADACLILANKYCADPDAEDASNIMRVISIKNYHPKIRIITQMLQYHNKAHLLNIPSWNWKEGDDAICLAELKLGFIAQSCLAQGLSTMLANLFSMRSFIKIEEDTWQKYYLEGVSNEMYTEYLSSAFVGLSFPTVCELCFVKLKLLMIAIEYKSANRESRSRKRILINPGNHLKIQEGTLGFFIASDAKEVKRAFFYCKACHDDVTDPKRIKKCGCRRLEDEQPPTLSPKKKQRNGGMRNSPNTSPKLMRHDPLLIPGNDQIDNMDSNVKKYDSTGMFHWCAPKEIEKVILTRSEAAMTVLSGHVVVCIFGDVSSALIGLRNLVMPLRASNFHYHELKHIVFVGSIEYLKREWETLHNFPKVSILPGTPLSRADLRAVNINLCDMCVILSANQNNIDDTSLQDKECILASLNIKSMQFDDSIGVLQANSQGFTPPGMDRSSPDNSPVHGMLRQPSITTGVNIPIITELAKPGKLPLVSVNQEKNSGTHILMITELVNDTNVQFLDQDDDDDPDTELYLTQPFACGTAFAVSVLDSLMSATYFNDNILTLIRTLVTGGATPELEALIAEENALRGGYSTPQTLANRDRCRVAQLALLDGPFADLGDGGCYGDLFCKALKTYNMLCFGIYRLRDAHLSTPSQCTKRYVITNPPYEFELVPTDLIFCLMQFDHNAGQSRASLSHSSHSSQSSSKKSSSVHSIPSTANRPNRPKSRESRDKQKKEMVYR

Molecular target: T1, BKαβ1 (Rattus norvegicus, UniProt Q62976)
T1 construct: expressed in transfected cells; host or cells: HEK293
Assay: BK channel currents in single HEK293 cell expressing BK(α+β1) channels (HEKBKαβ1) under whole-cell voltage clamp
Type: cell-based
Conditions: peak outward current at +40 mV relative to value before application; p<0.05 versus 1.0
From the text: Effects of test compounds on BK channel currents were examined in single HEK293 cell expressing BK(α+β1) channels (hereinafter referred to as HEKBKαβ1) under whole-cell voltage clamp. The Ca^2+ concentration in the pipette solution was fixed at pCa 6.5 using a Ca^2+-EGTA buffer. Depolarization from −60 mV to +30 mV induced outward currents in both native HEK293 and HEKBKαβ1, but the current density was much higher in the latter (the current density at the peak: 11.0±1.8 and 95.2±20.9 pA/pF, n=5 and 6, respectively, p<0.05). […] This enhancement of outward current by pimaric acid could be removed completely by washout. Effects of other test compounds were also examined in this manner. The peak amplitude of outward current at +40 mV in the presence of 1, 3, and 10 μm resin acids was measured relative to the value taken just before the application (FIG. 6B).

C=C[C@@]1(C)C=C2CC[C@@H]3[C@](C)(CCC[C@@]3(C)C(=O)O)[C@H]2CC1 [pimaric acid]
concentration showing significant potentiating effects on outward current: ≥ 1 μm

C=CC1(C)C=C2CCC3C(C)(C(=O)O)CCCC3(C)C2CC1 (centres unmarked) [sandaracopimaric acid]
concentration showing significant potentiating effects on outward current: ≥ 1 μm
